This note sets out measurements from article PMC12296705, “In Vivo and Bioinformatics Evaluation of Nine Traditional Chinese Medicine Compounds Targeting Acetylcholinesterase and Butyrylcholinesterase Enzymes in Alzheimer’s Disease” (Iranian Journal of Pharmaceutical Research : IJPR, 2025).

In assay [1] the test system is lead acetate-induced AD (LA-AD) rats. In words: Lipid peroxidation (MDA) in brain tissue of LA-AD rats. It is filed as in vivo, rat. To be noted: 1 mg/kg IP for 15 days, compared to the LA-AD group.
Assay [2] shares this test system. In words: Glutathione (GSH) content in brain tissue of LA-AD rats. Type of assay: in vivo, rat. To be noted: 1 mg/kg IP for 15 days, compared to the LA-AD group.

In the case of `COc1cc2c(cc1OC)C(=O)C(CC1CCN(Cc3ccccc3)CC1)C2` (centres unmarked) [Donepezil, reference compound], the “Malondialdehyde (MDA) levels” value in assay [1] was “significantly reduced”. For the same compound, the “Glutathione (GSH) levels” value in assay [2] is recorded as “significantly increased”.
